# These are yes or no findings as the source states them, for the method shown. Some binding calls cover weakened binding; strength is not graded here.
# Protein sequences, listed by entry. Tags and fused reporters are not part of them. Lines headed by an entry give the natural chain unless they say otherwise; changes in a name come on top. Residues count along the entry.
# UniProt P08581, residues 25-932: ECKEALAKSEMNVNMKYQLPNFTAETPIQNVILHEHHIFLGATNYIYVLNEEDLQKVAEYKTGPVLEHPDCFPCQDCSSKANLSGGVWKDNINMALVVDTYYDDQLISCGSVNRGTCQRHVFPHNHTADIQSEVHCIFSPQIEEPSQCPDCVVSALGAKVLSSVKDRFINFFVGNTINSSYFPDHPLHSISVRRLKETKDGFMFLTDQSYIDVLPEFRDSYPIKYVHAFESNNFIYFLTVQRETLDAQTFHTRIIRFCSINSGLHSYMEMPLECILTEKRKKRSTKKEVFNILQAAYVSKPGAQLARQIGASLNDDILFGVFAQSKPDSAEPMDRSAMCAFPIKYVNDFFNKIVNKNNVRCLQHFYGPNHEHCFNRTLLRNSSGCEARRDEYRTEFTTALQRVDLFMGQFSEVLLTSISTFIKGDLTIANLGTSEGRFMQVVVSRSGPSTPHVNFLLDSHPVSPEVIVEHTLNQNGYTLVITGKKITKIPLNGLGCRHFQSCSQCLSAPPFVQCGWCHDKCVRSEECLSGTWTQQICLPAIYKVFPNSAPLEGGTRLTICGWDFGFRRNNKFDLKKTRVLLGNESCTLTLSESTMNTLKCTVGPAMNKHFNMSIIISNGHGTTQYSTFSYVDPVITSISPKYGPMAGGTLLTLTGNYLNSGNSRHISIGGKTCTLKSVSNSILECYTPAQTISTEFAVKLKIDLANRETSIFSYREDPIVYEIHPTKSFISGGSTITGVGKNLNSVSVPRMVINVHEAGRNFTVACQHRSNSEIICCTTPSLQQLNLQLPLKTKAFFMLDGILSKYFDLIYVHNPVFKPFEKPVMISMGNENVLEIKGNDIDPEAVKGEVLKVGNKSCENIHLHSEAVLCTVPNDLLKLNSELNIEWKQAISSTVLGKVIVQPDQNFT
# UniProt P14210: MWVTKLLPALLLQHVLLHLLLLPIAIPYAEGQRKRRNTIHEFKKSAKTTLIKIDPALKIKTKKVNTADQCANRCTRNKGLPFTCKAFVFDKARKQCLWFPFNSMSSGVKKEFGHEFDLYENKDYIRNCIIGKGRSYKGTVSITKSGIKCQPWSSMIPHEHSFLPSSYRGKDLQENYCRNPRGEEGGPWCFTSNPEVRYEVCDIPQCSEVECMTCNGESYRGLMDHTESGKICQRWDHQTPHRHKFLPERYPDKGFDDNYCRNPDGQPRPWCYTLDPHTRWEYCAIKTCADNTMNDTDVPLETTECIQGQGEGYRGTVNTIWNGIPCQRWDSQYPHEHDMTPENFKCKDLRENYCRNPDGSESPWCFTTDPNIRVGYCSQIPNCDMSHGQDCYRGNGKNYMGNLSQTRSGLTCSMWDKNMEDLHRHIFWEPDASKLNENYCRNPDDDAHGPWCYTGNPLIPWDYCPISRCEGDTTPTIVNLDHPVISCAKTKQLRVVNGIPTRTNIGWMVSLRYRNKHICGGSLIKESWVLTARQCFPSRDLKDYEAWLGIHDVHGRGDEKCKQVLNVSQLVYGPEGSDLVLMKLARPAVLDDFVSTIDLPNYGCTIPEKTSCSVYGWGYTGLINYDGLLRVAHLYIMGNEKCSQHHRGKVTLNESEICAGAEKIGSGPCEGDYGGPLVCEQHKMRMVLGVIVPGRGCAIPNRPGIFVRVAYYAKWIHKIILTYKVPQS
# Key:
# soluble Met receptor [1] = target: soluble Met receptor (UniProt P08581); test: yeast surface display of the binder, soluble Met at 0.5 nM and 5 nM, flow cytometry
# soluble Met receptor [2] = target: soluble Met receptor (UniProt P08581); test: yeast surface display, 0.5 nM and 5 nM soluble Met
substance,measurement,setting,value
Aras4 (engineered NK1 fragment of HGF) (from UniProt P14210 28-210) (ligand),binding,soluble Met receptor [1],binds
same,binding,soluble Met receptor [2],binds
